From patent publication US20080120731A1, “Transgenic Animal Models for Neurodevelopmental Disorders” (priority 2004, published 2008)
At least one compound was matched to its structure with a doubt left.

Test system: APH1BC^−/− mice
Experiment: Prepulse inhibition (PPI) of acoustic startle after antipsychotic injection
Assay type: in vivo
Description: Schizophrenia is a complex disease characterized by delusions and hallucinations (so-called positive symptoms), affective and social disturbances (negative symptoms), but also by cognitive deficits. Disturbed information processing, and more specifically an impairment in the filtering of irrelevant stimuli, is thought to contribute to the disease phenotype by causing “sensory flooding”, which may lead to cognitive fragmentation. A psychophysical measure of (pre-attentive) information filtering is “prepulse inhibition” (PPI). […] The strength of this reflex response is read out by recording the amplitude of the eye-blink response that is part of the startling reaction. This way, the amplitude of the eye-blink response is a measure of the efficiency of the coupling of the sensory stimulus to the motor reflex programme. If the startle stimulus is preceded by a weak, non-startling “prepulse stimulus”, e.g. a tone just above background noise levels, the amplitude of the eye-blink response to the startle stimulus is strongly diminished in normal individuals. […] The “% prepulse inhibition (PPI)” is quantified as: 100−((A2/A1)*100), with A1 being the amplitude of the response to the startle stimulus and A2 the amplitude of the response to the same startle stimulus preceded by the prepulse stimulus. […] In rodents the motor reaction to a startle stimulus is quantified by placing mice into a restraining tube in a sound-proof cabin mounted onto a pressure sensitive platform. Upon presentation of the startling sound, the mouse flinches and the pressure it exerts via its limbs is recorded quantitatively as a ballistogram that can be analysed using appropriate software. This way, the effect of a preceding prepulse on the flinching reaction to a startle stimulus can be calculated.
For all trials, background noise was 70 db, the prepulse preceded the startle stimulus by 100 ms, the prepulse stimuli lasted 20 ms and the startle stimuli lasted 60 ms. […] For each of the four different combinations of prepulse and startle stimulus, the % PPI was calculated using the formula described above. […]

CN1CCN(C2=Nc3cc(Cl)ccc3Nc3ccccc32)CC1 [clozapine, Clozapine]
PPI in APH1BC^−/− mice relative to wild type levels (APH1BC^−/− mice, pp 74/p110 and pp 78/p110 trials, 1 μg/kg injected intra-parietally, PPI measured 45 min after injection): essentially normalized | effects on (improvements of) PPI in the p100 trials (p100 trials, 1 μg/kg intra-parietally, 45 min after injection): small but insignificant effects | wild type PPI levels compared to placebo-injected animals (wild type littermates, pp74/p110 and pp 78/p110 trials, 1 μg/kg intra-parietally, 45 min after injection): No such effect
